Data taken from US10857167B2, “Use of oligosaccharide compositions to enhance weight gain” (Children's Hospital Medical Center, priority 2015, dated 2020).
This continues a long series; more values of the same kind are listed elsewhere.

Tested on: distal small bowel gene expression
Assay: RNA sequencing / transcriptional analysis of small bowel 56 days after ICR (2′-FL signature response)
Format: in vivo, mouse
Description: Luminal small bowel contents were expressed into AllProtect Tissue Reagent (Qiagen Inc, CA). Bacterial DNA was extracted using the AllPrep DNA/RNA Mini Kit (Qiagen Inc, CA), according to kit instructions and prior to sequencing (described below). Small bowel tissue samples for RNA were placed into RNA Later (Life Technologies, NY). RNA extraction was accomplished following Qiagen RNeasy Plus Kit instruction (Qiagen Inc, CA). All nucleic acid samples were then stored at -80 Celsius until sequenced (described below). Transcriptional analysis was carried out on resected and harvested small bowel samples obtained from operated mice taken to 8 weeks. Murine RNA sequencing libraries were prepared from approximately 1.5 μg RNA using the TruSeq RNA Sample Preparation Kit (Illumina, Calif.) and sequenced using the HiSeq 2000 Sequencing System (Illumina, Calif.) with single-end 50 bp reads. Following removal of primers and barcodes, sequences were aligned to the mm10 genome using reference annotations from UCSC (Rosenbloom et al. (2015) Nucleic acids research 43: […]-681) (n=36,186 entities). Aligned reads were quantified and used to compute reads per kilobase per million mapped reads (RPKM); raw counts were then normalized using the DESeq algorithm and each harvested sample was baselined to its own resected sample. A filter was applied to the data, requiring at least three reads in all samples of at least one of the four experimental conditions (n=14,489 entities). The data discussed in this publication have been deposited in NCBI's Gene Expression Omnibus and are accessible through NCBI Gene Expression Omnibus (GEO) Series accession number GSE72590. Edgar et al. (2002) Nucleic acids research 30: 207-210. In order to characterize the impact of 2'-FL supplementation while accounting for the effect of ileoecal resection, a t-test was applied between resected and harvested samples within control and experimental animals. Significance was set at a p-value of ≤0.05 and a fold change of 3, which generated 2,576 differentially regulated entities across two comparisons. Gene set unions and intersections of the control and experimental gene sets were identified through Venn diagrams. From the master list, the gene list specific to animals supplemented with 2'-FL were removed in order to identify genes differentially regulated only by ICR (n=546 entities); this gene set characterizes the adaptive response. Further, the 2'-FL response (n=2,030 entities) was identified by removing the adaptive response signature described above from the master list, leaving only genes regulated by 2'-FL supplementation after ICR which were not found in the non-supplemented adaptive response. Heatmaps were generated using hierarchical clustering with the Pearson's Centered distance metric and the average linkage rule; both entities and samples were clustered. All genomic analyses described above were performed in Strand NGS (Strand Life Sciences, CA). Gene list functional enrichment was initially discovered using ToppFun, a member of the ToppGene Suite. Chen et al. (2009) Nucleic acids research 37: […]-311. No statistical correction was selected. Gene lists were further analyzed using ClueGO, a plugin for Cytoscape designed to decipher functionally grouped gene ontology and pathway annotation networks. Bindea et al. (2009) Bioinformatics 25: 1091-1093. At the time of data analysis, the annotation files were updated from sources to Jan. 1, 2015. “GO Term Fusion” was enabled to manage ontologic term redundancy and network specificity was set to medium. Results were restricted to pathways with p≤0.05 using Benjamini-Hochberg correction and Kappa scoring was set to 0.4. Biocyc annotations were assigned a rectangle, gene ontology biologic processes were assigned an ellipse, and […] annotations were assigned a diamond shape. No meaning was assigned to size or color. […]

C[C@@H]1O[C@@H](O[C@H]2[C@H](O[C@H]3[C@H](O)[C@@H](O)C(O)O[C@@H]3CO)O[C@H](CO)[C@H](O)[C@@H]2O)[C@@H](O)[C@H](O)[C@@H]1O (stereo partly shown) [2′-FL, 2′-fucosyllactose]
Fold Change (Pre- to Post-op) (BC147527): 4.67
Fold Change (Pre- to Post-op) (Bad): 3.481
Fold Change (Pre- to Post-op) (Barx2): 3.852
Fold Change (Pre- to Post-op) (Bbip1): 3.631
Fold Change (Pre- to Post-op) (Bet1): 3.74
Fold Change (Pre- to Post-op) (Bloc1s2): 5.046
Fold Change (Pre- to Post-op) (Bola1): 3.165
Fold Change (Pre- to Post-op) (Bola2): 3.525
Fold Change (Pre- to Post-op) (Bri3): 3.393
Fold Change (Pre- to Post-op) (Bud31): 3.553
Fold Change (Pre- to Post-op) (C1ql3): 3.089
Fold Change (Pre- to Post-op) (C1qtnf4): 3.302
Fold Change (Pre- to Post-op) (C1d): 5.373
Fold Change (Pre- to Post-op) (C87977): 8.094
Fold Change (Pre- to Post-op) (C330013E15Rik): 3.026
Fold Change (Pre- to Post-op) (C330018D20Rik): 4.28
Fold Change (Pre- to Post-op) (C330022C24Rik): 3.284
Fold Change (Pre- to Post-op) (Calml4): 3.699
Fold Change (Pre- to Post-op) (Car4): 3.573
Fold Change (Pre- to Post-op) (Casp4): 3.176
Fold Change (Pre- to Post-op) (Casp6): 3.284
Fold Change (Pre- to Post-op) (Cbr1): 3.381
Fold Change (Pre- to Post-op) (Cbr3): 4.769
Fold Change (Pre- to Post-op) (Ccdc28a): 3.21
Fold Change (Pre- to Post-op) (Ccdc58): 3.208
Fold Change (Pre- to Post-op) (Ccdc90b): 5.022
Fold Change (Pre- to Post-op) (Ccdc107): 4.264
Fold Change (Pre- to Post-op) (Ccdc122): 4.317
Fold Change (Pre- to Post-op) (Ccdc142): 4.101
Fold Change (Pre- to Post-op) (Cck): 3.246
Fold Change (Pre- to Post-op) (Ccl7): 5.1269
Fold Change (Pre- to Post-op) (Ccl8): 6.2504
Fold Change (Pre- to Post-op) (Ccl12): 3.183
Fold Change (Pre- to Post-op) (Ccl20): 9.28
Fold Change (Pre- to Post-op) (Ccng2): 3.524
Fold Change (Pre- to Post-op) (Cd302): 3.702
Fold Change (Pre- to Post-op) (Cd3d): 3.077
Fold Change (Pre- to Post-op) (Cdkn2b): 3.539
Fold Change (Pre- to Post-op) (Ceacam10): 3.159
Fold Change (Pre- to Post-op) (Cela1): 3.912
Fold Change (Pre- to Post-op) (Cenpa): 3.183
Fold Change (Pre- to Post-op) (Cenpw): 3.139
Fold Change (Pre- to Post-op) (Cetn2): 3.03
Fold Change (Pre- to Post-op) (Cetn3): 3.532
Fold Change (Pre- to Post-op) (Chac2): 6.017
Fold Change (Pre- to Post-op) (Chchd1): 4.681
Fold Change (Pre- to Post-op) (Chchd2): 3.429
Fold Change (Pre- to Post-op) (Chchd6): 3.848
Fold Change (Pre- to Post-op) (Chpt1): 3.408
Fold Change (Pre- to Post-op) (Chrna1): 3.295
Fold Change (Pre- to Post-op) (Churc1): 3.8
Fold Change (Pre- to Post-op) (Cisd1): 3.478
Fold Change (Pre- to Post-op) (Cklf): 3.155
Fold Change (Pre- to Post-op) (Clec4a4): 4.113
Fold Change (Pre- to Post-op) (Clec11a): 4.118
Fold Change (Pre- to Post-op) (Cmpk1): 3.834
Fold Change (Pre- to Post-op) (Cnih1): 3.359
Fold Change (Pre- to Post-op) (Coa3): 3.688
Fold Change (Pre- to Post-op) (Coa6): 4.118
Fold Change (Pre- to Post-op) (Commd1): 3.397
Fold Change (Pre- to Post-op) (Commd2): 4.543
Fold Change (Pre- to Post-op) (Commd6): 4.745
Fold Change (Pre- to Post-op) (Commd8): 3.027
Fold Change (Pre- to Post-op) (Coprs): 3.681
Fold Change (Pre- to Post-op) (Coq3): 3.854
Fold Change (Pre- to Post-op) (Cox4i1): 3.946
Fold Change (Pre- to Post-op) (Cox6a1): 3.276
Fold Change (Pre- to Post-op) (Cox6b1): 3.574
Fold Change (Pre- to Post-op) (Cox6c): 3.634
Fold Change (Pre- to Post-op) (Cox7a2): 4.02
Fold Change (Pre- to Post-op) (Cox7a2l): 3.123
Fold Change (Pre- to Post-op) (Cox7b): 4.932
Fold Change (Pre- to Post-op) (Cox7c): 3.557
Fold Change (Pre- to Post-op) (Cox14): 4.539
Fold Change (Pre- to Post-op) (Cox16): 4.586
Fold Change (Pre- to Post-op) (Cox17): 3.196
Fold Change (Pre- to Post-op) (Cox19): 3.331
Fold Change (Pre- to Post-op) (Crip1): 3.737
Fold Change (Pre- to Post-op) (Cript): 4.107
Fold Change (Pre- to Post-op) (Crot): 3.168
Fold Change (Pre- to Post-op) (Csf2): 3.435
Fold Change (Pre- to Post-op) (Cst6): 3.121
Fold Change (Pre- to Post-op) (Ctla2b): 5.921
Fold Change (Pre- to Post-op) (Ctxn3): 5.82
Fold Change (Pre- to Post-op) (Cxcl16): 3.216
Fold Change (Pre- to Post-op) (Cyb5): 3.219
Fold Change (Pre- to Post-op) (Cycs): 3.837
Fold Change (Pre- to Post-op) (Cyp2r1): 3.143
Fold Change (Pre- to Post-op) (Cyp51): 4.805
Fold Change (Pre- to Post-op) (Cystm1): 3.195
Fold Change (Pre- to Post-op) (D130040H23Rik): 6.992
Fold Change (Pre- to Post-op) (D330045A20Rik): 6.802
Fold Change (Pre- to Post-op) (Dbi): 4.947
Fold Change (Pre- to Post-op) (Dbndd2): 3.402
Fold Change (Pre- to Post-op) (Dctpp1): 3.925
Fold Change (Pre- to Post-op) (Dcun1d5): 3.581
Fold Change (Pre- to Post-op) (Ddt): 3.272
Fold Change (Pre- to Post-op) (Deb1): 4.009
Fold Change (Pre- to Post-op) (Dkk4): 4.617
Fold Change (Pre- to Post-op) (Dnajc15): 4.927
Fold Change (Pre- to Post-op) (Dnajc19): 3.578
Fold Change (Pre- to Post-op) (Dph3): 3.817
Fold Change (Pre- to Post-op) (Dpm3): 3.46
Fold Change (Pre- to Post-op) (Dpy30): 3.022
Fold Change (Pre- to Post-op) (Dtd2): 3.143
Fold Change (Pre- to Post-op) (Dusp14): 3.1
Fold Change (Pre- to Post-op) (Dusp19): 3.608
Fold Change (Pre- to Post-op) (Dynlt1a): 4.579
Fold Change (Pre- to Post-op) (Dynlt1f): 3.889
Fold Change (Pre- to Post-op) (E030024N20Rik): 3.148
Fold Change (Pre- to Post-op) (Ebpl): 3.328
Fold Change (Pre- to Post-op) (Echs1): 3.028
Fold Change (Pre- to Post-op) (Eef1b2): 3.227
Fold Change (Pre- to Post-op) (Eif4a2): 3.69
Fold Change (Pre- to Post-op) (Eif3h): 3.016
Fold Change (Pre- to Post-op) (Endog): 3.078
Fold Change (Pre- to Post-op) (Ereg): 3.585
Fold Change (Pre- to Post-op) (Erh): 3.201
Fold Change (Pre- to Post-op) (Erich2): 5.146
Fold Change (Pre- to Post-op) (Fabp2): 8.144
Fold Change (Pre- to Post-op) (Fahd2a): 3.735
